Assay results: article PMC7746826
Results are given in words; binding and its absence hold for the method and conditions named. Binding seen in cells or lysates may run through a third protein. Some results given as binding are weak or reduced against the parent protein; the word gives no strength.

Chains of the proteins cited; added tags and fusions are not shown. Lines headed by an entry give the natural chain unless they say otherwise; changes in a name come on top.
UniProt P54646: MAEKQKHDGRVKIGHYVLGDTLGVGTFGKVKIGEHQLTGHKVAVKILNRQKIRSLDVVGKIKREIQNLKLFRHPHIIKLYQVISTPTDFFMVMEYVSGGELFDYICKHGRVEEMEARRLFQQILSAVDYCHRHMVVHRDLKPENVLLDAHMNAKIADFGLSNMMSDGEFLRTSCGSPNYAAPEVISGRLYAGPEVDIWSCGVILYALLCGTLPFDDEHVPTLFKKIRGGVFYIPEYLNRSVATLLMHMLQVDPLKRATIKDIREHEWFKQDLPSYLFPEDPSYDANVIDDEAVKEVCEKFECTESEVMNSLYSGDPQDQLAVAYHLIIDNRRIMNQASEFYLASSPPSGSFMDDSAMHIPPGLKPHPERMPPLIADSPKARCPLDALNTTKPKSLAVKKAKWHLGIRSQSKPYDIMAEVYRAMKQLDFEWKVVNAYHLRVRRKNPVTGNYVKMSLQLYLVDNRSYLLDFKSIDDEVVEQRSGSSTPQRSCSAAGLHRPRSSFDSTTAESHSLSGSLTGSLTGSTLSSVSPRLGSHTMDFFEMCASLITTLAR
UniProt Q8R455: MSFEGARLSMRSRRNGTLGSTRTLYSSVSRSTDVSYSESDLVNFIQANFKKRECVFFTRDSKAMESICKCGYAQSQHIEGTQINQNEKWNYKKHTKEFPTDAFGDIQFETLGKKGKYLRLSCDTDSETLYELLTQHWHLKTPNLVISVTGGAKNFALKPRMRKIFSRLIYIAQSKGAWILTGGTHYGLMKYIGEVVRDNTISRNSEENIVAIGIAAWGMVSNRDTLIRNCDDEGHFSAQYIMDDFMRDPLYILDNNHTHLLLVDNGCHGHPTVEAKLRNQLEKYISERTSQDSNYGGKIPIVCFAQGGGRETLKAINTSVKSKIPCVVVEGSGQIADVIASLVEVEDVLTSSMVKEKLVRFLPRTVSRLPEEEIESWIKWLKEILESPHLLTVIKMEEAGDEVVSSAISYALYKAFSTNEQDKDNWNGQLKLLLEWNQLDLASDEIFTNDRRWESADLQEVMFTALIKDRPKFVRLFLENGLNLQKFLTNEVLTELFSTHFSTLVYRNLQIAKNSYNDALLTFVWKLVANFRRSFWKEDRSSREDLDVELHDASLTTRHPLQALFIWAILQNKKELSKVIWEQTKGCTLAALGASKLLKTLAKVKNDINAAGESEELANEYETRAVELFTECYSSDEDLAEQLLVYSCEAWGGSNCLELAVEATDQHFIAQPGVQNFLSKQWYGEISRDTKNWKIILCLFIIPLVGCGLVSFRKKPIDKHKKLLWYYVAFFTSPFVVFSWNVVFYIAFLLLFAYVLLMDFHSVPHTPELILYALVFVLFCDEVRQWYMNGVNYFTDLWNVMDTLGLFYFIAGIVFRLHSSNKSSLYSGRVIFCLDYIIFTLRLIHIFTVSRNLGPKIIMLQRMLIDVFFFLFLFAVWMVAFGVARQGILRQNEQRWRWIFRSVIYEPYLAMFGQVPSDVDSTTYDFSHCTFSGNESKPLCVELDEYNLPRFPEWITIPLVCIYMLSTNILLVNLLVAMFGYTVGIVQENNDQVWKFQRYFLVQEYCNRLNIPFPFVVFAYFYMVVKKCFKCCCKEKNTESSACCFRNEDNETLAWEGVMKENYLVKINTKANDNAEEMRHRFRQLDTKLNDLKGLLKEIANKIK

Tests used:
[1] = target: GFP-AMPK (human) (UniProt P54646); assay: co-IP; MCF7 cells cotransfected, lysed 48 h after transfection in 50 mM Tris/HCl pH 7.5, 150 mM NaCl, 2 mM EDTA, 1% NP-40; anti-GFP or anti-Flag antibody with Protein A/G PLUS-agarose, 2 h at 4°C; western blot for the other tag
[2] = target: Flag-tagged PRKAA2 (protein kinase AMP-activated catalytic subunit alpha 2, AMPKa2, Flag-AMPK) (human) (UniProt P54646); assay: as above

## Flag-tagged cytosolic C-terminus of TRPM8 (Flag-M8-C) (from UniProt Q8R455 980-1104) (domain or fragment)
[1]
  binding: binds

## green fluorescent protein-tagged TRPM8 (GFP-TRPM8) (from UniProt Q8R455 1-1104)
[2]
  binding: binds
